Consider one substance from patent publication US20060052326A1, “Werner's syndrome helicase as a target for anti -HIV/AIDS therapy” (priority 2004, published 2006).

Protein sequences, listed by entry. Tags and fused reporters are not part of them. Lines headed by an entry give the natural chain unless they say otherwise; changes in a name come on top.
UniProt P04608: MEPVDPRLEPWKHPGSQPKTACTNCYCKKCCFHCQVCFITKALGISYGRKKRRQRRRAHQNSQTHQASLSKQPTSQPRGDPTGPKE
UniProt O60563: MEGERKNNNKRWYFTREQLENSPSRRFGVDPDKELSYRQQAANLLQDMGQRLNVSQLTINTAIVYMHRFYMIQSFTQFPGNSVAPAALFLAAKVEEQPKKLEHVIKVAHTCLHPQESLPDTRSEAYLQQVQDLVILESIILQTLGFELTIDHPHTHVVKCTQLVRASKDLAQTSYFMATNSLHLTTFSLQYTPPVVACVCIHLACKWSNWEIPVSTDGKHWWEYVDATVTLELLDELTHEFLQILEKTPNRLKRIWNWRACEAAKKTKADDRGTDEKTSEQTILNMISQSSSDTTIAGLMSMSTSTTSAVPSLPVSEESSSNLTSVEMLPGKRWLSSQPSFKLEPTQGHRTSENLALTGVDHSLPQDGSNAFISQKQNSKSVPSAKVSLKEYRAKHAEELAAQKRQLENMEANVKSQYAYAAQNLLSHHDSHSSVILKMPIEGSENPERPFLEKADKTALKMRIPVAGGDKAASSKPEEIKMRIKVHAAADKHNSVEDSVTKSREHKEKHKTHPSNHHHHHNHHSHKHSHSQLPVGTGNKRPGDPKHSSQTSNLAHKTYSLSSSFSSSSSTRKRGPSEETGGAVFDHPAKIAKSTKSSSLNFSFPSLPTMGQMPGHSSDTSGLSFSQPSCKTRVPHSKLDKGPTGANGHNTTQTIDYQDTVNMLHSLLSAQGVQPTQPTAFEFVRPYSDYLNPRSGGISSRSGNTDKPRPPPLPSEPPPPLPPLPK

Results are given in words; binding and its absence hold for the method and conditions named. In cells and extracts the contact can be indirect. Some binding calls cover weakened binding; strength is not graded here.

The target in the assay is HIV-1 Tat protein as expressed in HIV-1IIIB-infected H9 lymphocytes (HIV-1) (UniProt P04608). As to the kind of experiment: co-immunoprecipitation from H9HIV-1IIIB cells with rabbit polyclonal anti-HIV-1 Tat antibody and protein G-agarose; bound cdk9 detected by immunoblotting. A general note: A western blot detects proteins with antibodies after separation by electrophoresis.

For “cyclin T1-cdk9 complex (from UniProt O60563 1-726; P50750 1-372)”, the binding entry was “binds”.
